Results: EP3178809A1, “HYBRID MOLECULE WITH STRUCTURAL AND ACTIVITY ELEMENTS OF RESVERATROL AND DIALLYL SULFIDE” (Albert-Ludwigs-Universität Freiburg, priority 2015, dated 2017)
For at least one compound, name, drawing or mass did not settle the structure.

Target: T1, protektive Katalase von Tumorzellen (Homo sapiens, UniProt P04040)
T1 construct: endogenous in cells; host or cells: MKN-45 (human gastric carcinoma cell line)
T1 sequence (P04040 2-527 limits assumed): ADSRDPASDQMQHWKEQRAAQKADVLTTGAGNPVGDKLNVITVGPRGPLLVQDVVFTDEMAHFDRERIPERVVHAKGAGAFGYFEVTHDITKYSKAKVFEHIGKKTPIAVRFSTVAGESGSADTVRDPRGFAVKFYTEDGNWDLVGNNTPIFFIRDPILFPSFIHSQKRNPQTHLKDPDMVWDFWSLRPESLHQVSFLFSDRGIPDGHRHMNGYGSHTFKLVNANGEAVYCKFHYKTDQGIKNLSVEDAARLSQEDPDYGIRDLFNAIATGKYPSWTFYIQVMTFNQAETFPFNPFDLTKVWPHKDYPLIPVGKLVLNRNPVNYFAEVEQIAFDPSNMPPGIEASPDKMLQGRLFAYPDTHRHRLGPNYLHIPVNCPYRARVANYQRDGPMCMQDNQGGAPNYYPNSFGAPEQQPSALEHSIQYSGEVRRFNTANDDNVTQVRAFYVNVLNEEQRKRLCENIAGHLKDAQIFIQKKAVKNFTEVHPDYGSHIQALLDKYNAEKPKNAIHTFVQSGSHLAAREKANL
Experiment: Inactivation of protective catalase: sensitisation of MKN-45 cells to peroxynitrite-induced apoptosis
Assay type: cell-based
Conditions: 150 µM DADS for 20 min or 50 mM 3-AT, apoptosis 100 min after PON
Description: Figur 8: DADS führt zur Inaktivierung der protektiven Katalase von Tumorzellen • A. Humane MKN-45 Tumorzellen enthielten entweder zunächst keine Zusätze (Kontrolle), 50 mM des Katalasehemmers 3-AT oder wurden für 20 Minuten mit 150 µM DADS behandelt. Nach einem Waschschritt und der Verdünnung der Zellkonzentration auf 6000 Zellen / 100 µl Ansatz wurde Peroxynitrit (PON) in den angegebenen Konzentrationen zugegeben. Nach 100 Minuten erfolgte die Bestimmung der apoptotischen Zellen in Doppelansätzen. Wie die Kontrolle zeigt, sind die Tumorzellen vor der Apoptose-auslösenden Wirkung von Peroxynitrit geschützt.
Figur 8 A zeigt, dass die kurzzeitige Behandlung von Tumorzellen mit DADS den gleichen Effekt hat, wie die Zugabe des Katalasehemmstoffs 3-Aminotriazol (3-AT), nämlich die Zellen für die Apoptose-auslösende Wirkung von exogen zugegebenem Peroxynitrit (PON) zu aktivieren. Die Sensitivierung für die Wirkung von PON ermöglicht die selektive Testung der Inaktivierung der membranständigen Katalase von Tumorzellen (Heinzelmann and Bauer, 2010; Böhm et al., 2015). Im Gegensatz zu DADS führt DAS zu keiner Inaktivierung der Katalase (Figur 8 F). […]

Nc1nc[nH]n1 [3-AT, 3-Aminotriazol] was tested, and the “Wirkung auf die protektive Katalase (sensitisation to peroxynitrite)” value was “wird der Schutz aufgehoben und Apoptose induziert”.
